{"source": "patent US7943616B2", "about": "“Azaindoles for inhibiting aurora2 and other kinases” (Aventis Pharmaceuticals Inc., priority 2001, dated 2011)", "test_system": "Brown Norway rats", "assay": "Acute antigen induced bronchoconstriction in the allergic rat", "format": "in vivo", "details": "p.o. or i.p. 24 and 2 hours before iv ovalbumin, 10-100 mg/kg", "note": "At least one compound was matched to its structure with a doubt left.", "data": [{"smiles": "CCCC1O[C@@H]2C[C@H]3[C@@H]4CCC5=CC(=O)C=C[C@]5(C)[C@H]4[C@@H](O)C[C@]3(C)[C@]2(C(=O)CO)O1", "note": "(stereo partly shown) [budesonide]", "values": [{"measurement": "antigen-induced bronchoconstriction (airway resistance over baseline)", "value": "significant increase in the airway resistance over baseline"}]}]}
